Data taken from patent US20260266848A1, “COMPOSITIONS AND METHODS FOR DIAGNOSING AND TREATING DYSTONIA” (Duke University, priority 2023, published 2026).

B1: ABCB9 (protein, UniProt Q9NP78 1-766, looked up)
ABC-type oligopeptide …: MRLWKAVVVTLAFMSVDICVTTAIYVFSHLDRSLLEDIRHFNIFDSVLDLWAACLYRSCLLLGATIGVAKNSALGPRRLRASWLVITLVCLFVGIYAMVKLLLFSEVRRPIRDPWFWALFVWTYISLGASFLLWWLLSTVRPGTQALEPGAATEAEGFPGSGRPPPEQASGATLQKLLSYTKPDVAFLVAASFFLIVAALGETFLPYYTGRAIDGIVIQKSMDQFSTAVVIVCLLAIGSSFAAGIRGGIFTLIFARLNIRLRNCLFRSLVSQETSFFDENRTGDLISRLTSDTTMVSDLVSQNINVFLRNTVKVTGVVVFMFSLSWQLSLVTFMGFPIIMMVSNIYGKYYKRLSKEVQNALARASNTAEETISAMKTVRSFANEEEEAEVYLRKLQQVYKLNRKEAAAYMYYVWGSGLTLLVVQVSILYYGGHLVISGQMTSGNLIAFIIYEFVLGDCMESVGSVYSGLMQGVGAAEKVFEFIDRQPTMVHDGSLAPDHLEGRVDFENVTFTYRTRPHTQVLQNVSFSLSPGKVTALVGPSGSGKSSCVNILENFYPLEGGRVLLDGKPISAYDHKYLHRVISLVSQEPVLFARSITDNISYGLPTVPFEMVVEAAQKANAHGFIMELQDGYSTETGEKGAQLSGGQKQRVAMARALVRNPPVLILDEATSALDAESEYLIQQAIHGNLQKHTVLIIAHRLSTVEHAHLIVVLDKGRVVQQGTHQQLLAQGGLYAKLVQRQMLGLQPAADFTAGHNEPVANGSHKA
B2: ILK (protein, UniProt Q13418 1-452, looked up)
Scaffold protein ILK: MDDIFTQCREGNAVAVRLWLDNTENDLNQGDDHGFSPLHWACREGRSAVVEMLIMRGARINVMNRGDDTPLHLAASHGHRDIVQKLLQYKADINAVNEHGNVPLHYACFWGQDQVAEDLVANGALVSICNKYGEMPVDKAKAPLRELLRERAEKMGQNLNRIPYKDTFWKGTTRTRPRNGTLNKHSGIDFKQLNFLTKLNENHSGELWKGRWQGNDIVVKVLKVRDWSTRKSRDFNEECPRLRIFSHPNVLPVLGACQSPPAPHPTLITHWMPYGSLYNVLHEGTNFVVDQSQAVKFALDMARGMAFLHTLEPLIPRHALNSRSVMIDEDMTARISMADVKFSFQCPGRMYAPAWVAPEALQKKPEDTNRRSADMWSFAVLLWELVTREVPFADLSNMEIGMKVALEGLRPTIPPGISPHVCKLMKICMNEDPAKRPKFDMIVPILEKMQDK
B3: OBP2A (protein, UniProt Q9NY56 16-170, looked up)
Odorant-binding protein 2a: LSFTLEEEDITGTWYVKAMVVDKDFPEDRRPRKVSPVKVTALGGGNLEATFTFMREDRCIQKKILMRKTEEPGKFSAYGGRKLIYLQELPGTDDYVFYCKDQRRGGLRYMGKLVGRNPNTNLEALEEFKKLVQHKGLSEEDIFMPLQTGSCVLEH
B4: KRT33A (protein, UniProt O76009 1-404, looked up)
Keratin, type I cuticular …: MSYSCGLPSLSCRTSCSSRPCVPPSCHGCTLPGACNIPANVSNCNWFCEGSFNGSEKETMQFLNDRLASYLEKVRQLERDNAELENLIRERSQQQEPLVCASYQSYFKTIEELQQKILCSKSENARLVVQIDNAKLASDDFRTKYETELSLRQLVESDINGLRRILDELTLCRSDLEAQVESLKEELLCLKQNHEQEVNTLRCQLGDRLNVEVDAAPTVDLNQVLNETRSQYEALVETNRREVEQWFATQTEELNKQVVSSSEQLQSYQAEIIELRRTVNALEIELQAQHNLRDSLENTLTESEARYSSQLSQVQRLITNVESQLAEIRSDLERQNQEYQVLLDVRARLECEINTYRSLLESEDCKLPSNPCATTNACDKSTGPCISNPCGLRARCGPCNTFGY
B5: SP110 (protein, UniProt Q9HB58 1-689, looked up)
Sp110 nuclear body protein: MFTMTRAMEEALFQHFMHQKLGIAYAIHKPFPFFEGLLDNSIITKRMYMESLEACRNLIPVSRVVHNILTQLERTFNLSLLVTLFSQINLREYPNLVTIYRSFKRVGASYEWQSRDTPILLEAPTGLAEGSSLHTPLALPPPQPPQPSCSPCAPRVSEPGTSSQQSDEILSESPSPSDPVLPLPALIQEGRSTSVTNDKLTSKMNAEEDSEEMPSLLTSTVQVASDNLIPQIRDKEDPQEMPHSPLGSMPEIRDNSPEPNDPEEPQEVSSTPSDKKGKKRKRCIWSTPKRRHKKKSLPGGTASSRHGIQKKLKRVDQVPQKKDDSTCNSTVETRAQKARTECARKSRSEEIIDGTSEMNEGKRSQKTPSTPRRVTQGAASPGHGIQEKLQVVDKVTQRKDDSTWNSEVMMRVQKARTKCARKSRLKEKKKEKDICSSSKRRFQKNIHRRGKPKSDTVDFHCSKLPVTCGEAKGILYKKKMKHGSSVKCIRNEDGTWLTPNEFEVEGKGRNAKNWKRNIRCEGMTLGELLKRKNSDECEVCCQGGQLLCCGTCPRVFHEDCHIPPVEAKRMLWSCTFCRMKRSSGSQQCHHVSKTLERQMQPQDQLIRDYGEPFQEAMWLDLVKERLITEMYTVAWFVRDMRLMFRNHKTFYKASDFGQVGLDLEAEFEKDLKDVLGFHEANDGGFWTLP
B6: PRSS3 (protein, UniProt P35030 81-304, looked up)
Trypsin-3: IVGGYTCEENSLPYQVSLNSGSHFCGGSLISEQWVVSAAHCYKTRIQVRLGEHNIKVLEGNEQFINAAKIIRHPKYNRDTLDNDIMLIKLSSPAVINARVSTISLPTTPPAAGTECLISGWGNTLSFGADYPDELKCLDAPVLTQAECKASYPGKITNSMFCVGFLEGGKDSCQRDSGGPVVCNGQLQGVVSWGHGCAWKNRPGVYTKVYNYVDWIKDTIAANS

Tested on: DYT1 patient plasma derived EVs
Test: Plasma-derived EV proteomics (ExoQuick ULTRA, DIA LC/MS/MS), DYT1 vs Healthy Controls
Parameters: species or system human
Details: for Mean DYT1 / Mean HC: protein abundance; for Mean DYT1: DYT1 patients; for Mean HC: healthy controls (HC); for Log2FC: DYT1 patients as compared to healthy controls
Experimental: Data was obtained for extracellular vesicles using previously acquired samples. The ExoQuick® ULTRA EV Isolation System was used to fractionate and enrich EVs from plasma. Isolated plasma EV samples were then submitted to proteomic analysis by the Duke Proteomics and Metabolomics Core Facility (DPMCF). At the DPMCF, quantitative (LC/MS/MS) was performed on 500 ng of each sample, using an EvoSep One UPLC system coupled to a Thermo Orbitrap Astral high-resolution accurate mass tandem mass spectrometer (Thermo). Briefly, the sample was eluted directly from an Evotip which was subjected to a low organic wash and then subjected to an analytical separation using a 1.7 μm EvoSep 150 um ID×15 cm endurance (EveoSep) column running an SPD30 gradient from approximately 5 to 30% acetonitrile with 0.1% formic acid with a column temperature of 50 C. Data collection on the Orbitrap Astral mass spectrometer was performed in a data-independent acquisition (DIA) mode of acquisition with a r=240,000 (@m/z 200) full MS scan from m/z 380-980 with a target AGC value of 4e5 ions. Fixed DIA, windows of 4 m/z from m/z 380 to 980 DIA MS/MS scans were acquired in the Astral with a target AGC value of 5e4 and a max fill time of 6 ms. HCD collision energy setting of 27% was used for all MS2 scans.

Molecule | Mean DYT1 | Mean HC | Log2FC
B1 | 9.723 | 11.73 | –
B2 | 7.193 | 6.05 | 1.1474
B3 | 8.456 | 6.51 | 1.9446
B4 | 4.309 | 5.29 | –
B5 | 8.490 | 9.75 | –
B6 | 8.821 | 9.10 | −0.2795
